No constants are given. Whether binding was seen depends on the method and setting. In cells and extracts the contact can be indirect. Binding calls can cover weak binding; strength is not graded here.
Biological target: T1, CYLD (UniProt Q66H62)
T1 sequence: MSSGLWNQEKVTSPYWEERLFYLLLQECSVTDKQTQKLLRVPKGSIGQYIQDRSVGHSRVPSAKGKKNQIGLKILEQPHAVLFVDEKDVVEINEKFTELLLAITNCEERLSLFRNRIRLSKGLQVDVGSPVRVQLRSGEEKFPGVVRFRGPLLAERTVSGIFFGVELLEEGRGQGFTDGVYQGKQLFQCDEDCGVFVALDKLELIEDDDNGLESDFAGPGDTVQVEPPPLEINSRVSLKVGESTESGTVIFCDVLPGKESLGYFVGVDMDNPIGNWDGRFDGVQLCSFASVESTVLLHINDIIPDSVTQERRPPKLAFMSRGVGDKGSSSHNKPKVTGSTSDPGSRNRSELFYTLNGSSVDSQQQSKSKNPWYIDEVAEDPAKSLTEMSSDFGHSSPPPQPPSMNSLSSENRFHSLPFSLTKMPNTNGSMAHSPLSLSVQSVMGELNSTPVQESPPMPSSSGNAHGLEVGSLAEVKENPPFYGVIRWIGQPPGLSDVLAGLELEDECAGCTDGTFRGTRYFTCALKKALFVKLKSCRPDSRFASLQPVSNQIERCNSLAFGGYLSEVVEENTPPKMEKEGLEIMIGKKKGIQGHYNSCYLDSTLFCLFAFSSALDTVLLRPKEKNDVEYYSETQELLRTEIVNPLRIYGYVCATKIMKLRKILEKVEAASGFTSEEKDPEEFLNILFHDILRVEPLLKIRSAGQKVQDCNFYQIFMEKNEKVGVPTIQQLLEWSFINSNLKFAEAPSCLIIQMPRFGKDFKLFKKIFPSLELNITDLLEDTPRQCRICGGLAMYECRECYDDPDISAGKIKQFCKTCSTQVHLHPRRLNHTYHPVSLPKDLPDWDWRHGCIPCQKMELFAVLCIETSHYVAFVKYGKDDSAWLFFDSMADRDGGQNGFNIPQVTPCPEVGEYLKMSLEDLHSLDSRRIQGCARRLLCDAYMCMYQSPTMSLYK
Assay: co-IP; CYLD immunoprecipitated with CYLD antibody from solubilized PSD fractions; Western blot with antibodies for CYLD or CaMKII; control: beads without CYLD antibody

binding: binds
Substance: CaMKII (enzyme)

Source: article PMC3989330
